Some of these results come from one statement about several compounds together.
How the values were obtained:
Format in all cases: in vivo
[1] = system: Western flower thrips (Frankliniella occidentalis); experiment: Insecticidal test on western flower thrips, larvae on kidney bean leaf pieces; conditions: hatched larvae on kidney bean leaf pieces, counted 4 days after treatment
From the text: (§1) • A: the mortality rate is 100%. • B: the mortality rate is 90 to 99%. • C: the mortality rate is 80 to 89%. • D: the mortality rate is 50 to 79%. • E: the mortality rate is 0 to 49.
Insecticidal Test on Western flower thrips (Frankliniella occidentalis)
Female adults of western flower thrips were inoculated onto kidney bean leaf pieces, and allowed to lay eggs thereon for one day, then the female adults were removed. After 3 days, the hatched larvae on the leaf pieces were counted, and then the agrochemical dispersions diluted to 50 ppm or 500 ppm, each of which contained the compound described in Tables 1 to 5 as an active ingredient were applied. The number of larvae of the species surviving at 4 days after the treatment was counted, and the corrected mortality rate was calculated according to the formula shown below, and the insecticidal efficacy was evaluated according to the criteria of Test Example 1. This test was conducted in duplicate.

[2] = system: Diamondback moth (Plutella xylostella); experiment: Insecticidal test on diamondback moth, dip treatment of Chinese cabbage seedlings with laid eggs; conditions: seedlings with eggs dipped about 30 seconds, counted 6 days after dip treatment, 25° C.
[3] = system: Small Brown Planthopper (Laodelphax striatellus); experiment: Insecticidal test on small brown planthopper, dip treatment of rice plant seedlings; conditions: rice seedlings dipped 30 seconds, 3rd-instar larvae, counted 8 days after inoculation
From the text: as §1
Insecticidal Test on Small Brown Planthopper (Laodelphax striatellus)
The compounds represented by the general formula (1) of the present invention or salts thereof were separately dispersed in water and diluted to 50 ppm or 500 ppm. Rice plant seedlings (variety: Nihonbare) were dipped in the agrochemical dispersions for 30 seconds. After air-dried, each seedling was put into a separate glass test tube and inoculated with ten 3rd-instar larvae of small brown planthopper, and then the glass test tubes were capped with cotton plugs. At 8 days after the inoculation, the numbers of surviving larvae and dead larvae were counted, the corrected mortality rate was calculated according to the formula shown below, and the insecticidal efficacy was evaluated according to the criteria of Test Example 1.

COCCNC(=O)c1c([O-])c[n+](-c2ccc(C(F)(F)F)nc2)nc1O [1-97]
A (the mortality rate is 100%.): insecticidal efficacy (corrected mortality rate) against western flower thrips ([1]; 50 ppm) | insecticidal efficacy (corrected mortality rate) against western flower thrips ([1]; 500 ppm) | insecticidal efficacy (corrected mortality rate) against diamondback moth ([2]; 500 ppm dispersion) | insecticidal efficacy (corrected mortality rate) against small brown planthopper ([3]; 50 ppm) | insecticidal efficacy (corrected mortality rate) against small brown planthopper ([3]; 500 ppm)

O=C(Nc1ccc(F)nc1)c1c([O-])c[n+](-c2ccc(Cl)cc2)nc1O [1-7]
A (the mortality rate is 100%.): insecticidal efficacy (corrected mortality rate) against western flower thrips ([1]; 500 ppm) | insecticidal efficacy (corrected mortality rate) against diamondback moth ([2]; 500 ppm dispersion) | insecticidal efficacy (corrected mortality rate) against small brown planthopper ([3]; 50 ppm) | insecticidal efficacy (corrected mortality rate) against small brown planthopper ([3]; 500 ppm)

CNC(=O)c1c([O-])c[n+](-c2ccc(C(F)(F)F)nc2)nc1O [1-103]
A (the mortality rate is 100%.): insecticidal efficacy (corrected mortality rate) against western flower thrips ([1]; 500 ppm) | insecticidal efficacy (corrected mortality rate) against diamondback moth ([2]; 50 ppm dispersion) | insecticidal efficacy (corrected mortality rate) against diamondback moth ([2]; 500 ppm dispersion) | insecticidal efficacy (corrected mortality rate) against small brown planthopper ([3]; 50 ppm) | insecticidal efficacy (corrected mortality rate) against small brown planthopper ([3]; 500 ppm)

O=C(Nc1ccc(Cl)cn1)c1c([O-])c[n+](-c2ccc(Cl)nc2)nc1O [1-75]
A (the mortality rate is 100%.): insecticidal efficacy (corrected mortality rate) against western flower thrips ([1]; 500 ppm) | insecticidal efficacy (corrected mortality rate) against diamondback moth ([2]; 50 ppm dispersion) | insecticidal efficacy (corrected mortality rate) against diamondback moth ([2]; 500 ppm dispersion) | insecticidal efficacy (corrected mortality rate) against small brown planthopper ([3]; 50 ppm) | insecticidal efficacy (corrected mortality rate) against small brown planthopper ([3]; 500 ppm)

N#Cc1ccc(-[n+]2cc([O-])c(C(=O)Nc3ccc(F)cc3)c(O)n2)cn1 [1-115]
A (the mortality rate is 100%.): insecticidal efficacy (corrected mortality rate) against western flower thrips ([1]; 50 ppm) | insecticidal efficacy (corrected mortality rate) against western flower thrips ([1]; 500 ppm) | insecticidal efficacy (corrected mortality rate) against diamondback moth ([2]; 50 ppm dispersion) | insecticidal efficacy (corrected mortality rate) against diamondback moth ([2]; 500 ppm dispersion) | insecticidal efficacy (corrected mortality rate) against small brown planthopper ([3]; 50 ppm) | insecticidal efficacy (corrected mortality rate) against small brown planthopper ([3]; 500 ppm)

[O-]c1c[n+](-c2ccc(C(F)(F)F)nc2)nc(O)c1C(=S)NC1CC1 [1-100]
A (the mortality rate is 100%.): insecticidal efficacy (corrected mortality rate) against western flower thrips ([1]; 50 ppm) | insecticidal efficacy (corrected mortality rate) against western flower thrips ([1]; 500 ppm) | insecticidal efficacy (corrected mortality rate) against diamondback moth ([2]; 500 ppm dispersion) | insecticidal efficacy (corrected mortality rate) against small brown planthopper ([3]; 50 ppm) | insecticidal efficacy (corrected mortality rate) against small brown planthopper ([3]; 500 ppm)

N#Cc1ccc(-[n+]2cc([O-])c(C(=O)Nc3ccc(Cl)cn3)c(O)n2)cn1 [1-121]
A (the mortality rate is 100%.): insecticidal efficacy (corrected mortality rate) against western flower thrips ([1]; 500 ppm) | insecticidal efficacy (corrected mortality rate) against diamondback moth ([2]; 50 ppm dispersion) | insecticidal efficacy (corrected mortality rate) against diamondback moth ([2]; 500 ppm dispersion) | insecticidal efficacy (corrected mortality rate) against small brown planthopper ([3]; 500 ppm)

O=C(Nc1ccc(F)cc1)c1c([O-])c[n+](-c2ccc(Cl)cc2)nc1O [1-6]
A (the mortality rate is 100%.): insecticidal efficacy (corrected mortality rate) against western flower thrips ([1]; 500 ppm) | insecticidal efficacy (corrected mortality rate) against diamondback moth ([2]; 50 ppm dispersion) | insecticidal efficacy (corrected mortality rate) against diamondback moth ([2]; 500 ppm dispersion) | insecticidal efficacy (corrected mortality rate) against small brown planthopper ([3]; 500 ppm)

O=C(Nc1ccc(F)nc1)c1c([O-])c[n+](-c2ccc(Br)nc2)nc1O [1-83]
A (the mortality rate is 100%.): insecticidal efficacy (corrected mortality rate) against western flower thrips ([1]; 50 ppm) | insecticidal efficacy (corrected mortality rate) against western flower thrips ([1]; 500 ppm) | insecticidal efficacy (corrected mortality rate) against diamondback moth ([2]; 50 ppm dispersion) | insecticidal efficacy (corrected mortality rate) against diamondback moth ([2]; 500 ppm dispersion) | insecticidal efficacy (corrected mortality rate) against small brown planthopper ([3]; 50 ppm) | insecticidal efficacy (corrected mortality rate) against small brown planthopper ([3]; 500 ppm)

N#Cc1ccc(-[n+]2cc([O-])c(C(=O)Nc3ccc(F)cc3)c(O)n2)cc1 [1-22]
A (the mortality rate is 100%.): insecticidal efficacy (corrected mortality rate) against western flower thrips ([1]; 50 ppm) | insecticidal efficacy (corrected mortality rate) against western flower thrips ([1]; 500 ppm) | insecticidal efficacy (corrected mortality rate) against diamondback moth ([2]; 50 ppm dispersion) | insecticidal efficacy (corrected mortality rate) against diamondback moth ([2]; 500 ppm dispersion) | insecticidal efficacy (corrected mortality rate) against small brown planthopper ([3]; 50 ppm) | insecticidal efficacy (corrected mortality rate) against small brown planthopper ([3]; 500 ppm)

O=C(Nc1ccc(F)cc1)c1c([O-])c[n+](-c2ccc(C(F)(F)F)nc2)nc1O [1-88]
A (the mortality rate is 100%.): insecticidal efficacy (corrected mortality rate) against western flower thrips ([1]; 50 ppm) | insecticidal efficacy (corrected mortality rate) against western flower thrips ([1]; 500 ppm) | insecticidal efficacy (corrected mortality rate) against diamondback moth ([2]; 50 ppm dispersion) | insecticidal efficacy (corrected mortality rate) against diamondback moth ([2]; 500 ppm dispersion) | insecticidal efficacy (corrected mortality rate) against small brown planthopper ([3]; 50 ppm) | insecticidal efficacy (corrected mortality rate) against small brown planthopper ([3]; 500 ppm)

COc1cc(-[n+]2cc([O-])c(C(=O)Nc3ccc(F)cc3)c(O)n2)ccc1C#N [1-50]
A (the mortality rate is 100%.): insecticidal efficacy (corrected mortality rate) against western flower thrips ([1]; 50 ppm) | insecticidal efficacy (corrected mortality rate) against western flower thrips ([1]; 500 ppm) | insecticidal efficacy (corrected mortality rate) against diamondback moth ([2]; 50 ppm dispersion) | insecticidal efficacy (corrected mortality rate) against diamondback moth ([2]; 500 ppm dispersion) | insecticidal efficacy (corrected mortality rate) against small brown planthopper ([3]; 50 ppm) | insecticidal efficacy (corrected mortality rate) against small brown planthopper ([3]; 500 ppm)

Cc1ccc(NC(=O)c2c([O-])c[n+](-c3ccc(C(F)(F)F)cn3)nc2O)cc1 [1-58]
A (the mortality rate is 100%.): insecticidal efficacy (corrected mortality rate) against western flower thrips ([1]; 500 ppm) | insecticidal efficacy (corrected mortality rate) against diamondback moth ([2]; 50 ppm dispersion) | insecticidal efficacy (corrected mortality rate) against diamondback moth ([2]; 500 ppm dispersion) | insecticidal efficacy (corrected mortality rate) against small brown planthopper ([3]; 500 ppm)

CCNC(=O)c1c([O-])c[n+](-c2ccc(C(F)(F)F)nc2)nc1O [1-101]
A (the mortality rate is 100%.): insecticidal efficacy (corrected mortality rate) against western flower thrips ([1]; 50 ppm) | insecticidal efficacy (corrected mortality rate) against western flower thrips ([1]; 500 ppm) | insecticidal efficacy (corrected mortality rate) against diamondback moth ([2]; 500 ppm dispersion) | insecticidal efficacy (corrected mortality rate) against small brown planthopper ([3]; 50 ppm) | insecticidal efficacy (corrected mortality rate) against small brown planthopper ([3]; 500 ppm)
